Out of some 300,000 compounds screened, about 5,400 (1.8%) were called active. The inconclusive results got no clear call from the source; some entries with a clear call stand among them for comparison. The call rests on the fitted dose curve; tested in HEK293 cells. A potency beside an inconclusive call is a rough fit, not a confirmed value.
Experiment: qHTS for inhibitors of binding or entry into cells for Marburg Virus
Settings: Marburg virus pseudotyped entry inhibition, cell reporter; activity change, negative = inhibition: at 37.8 µM (top of the series) unless noted
On the % scale 0 is the no-effect control and ±100 the full control effect; potency means the concentration at half of the fitted maximal effect.

| SMILES | activity change, negative = inhibition | Potency |
| --- | --- | --- |
| O=C1CC(c2nc3ccccc3[nH]2)CN1c1cccc(Cl)c1 (configuration not stated) | inactive: 13.2% [at 46.1 µM] | – |
| COc1nc(C)c2cc(C)oc2n1 | inactive: 3.31% [at 46.1 µM] | – |
| C/C(CC(=O)Nc1ccc(Cl)cc1Cl)=N\NC(=O)c1cnccn1 | – | inconclusive: 5.62 µM [activator, partial curve, poor fit] |
| CC(Sc1nnc(NC2CC2)s1)C(=O)Nc1ccc(N2CCOCC2)cc1 (configuration not stated) | inactive: 20.7% | – |
| COc1ccc(-c2cc(C(F)(F)F)n3nc(C(=O)Nc4cc(C)on4)cc3n2)cc1OC | – | inconclusive: 0.316 µM [activator, partial curve, poor fit] |
| COc1ccc(C2=NO[C@@H]3[C@@H]4C[C@@H]([C@H]5C(=O)N(C)C(=O)[C@@H]45)[C@H]23)cc1 | – | inconclusive: 1.26 µM [activator, full curve, poor fit] |
| COc1ccc(C2(C)NC(=O)N(CC(=O)Nc3ccc(Br)cc3F)C2=O)cc1OC (configuration not stated) | – | inconclusive: 35.5 µM [inhibitor, single point] |
| Cc1ccc(NC(=O)COC(=O)Cc2c[nH]c3ccccc23)cc1F | – | inconclusive: 1.26 µM [activator, partial curve, poor fit] |
| COc1ccc(-n2c(COc3cccc4ccccc34)nnc2SC(C)C(=O)O)cc1 (configuration not stated) | inactive: -13.9% [at 46.1 µM] | – |
| CC1(C)CC(=O)C2=C(C1)O[C@@]1(CCCCN3C(=O)c4ccccc4C3=O)Cc3cc(C#N)ccc3[C@H]2O1 | – | inconclusive: 1.19 µM [inhibitor, partial curve, poor fit] |
| Clc1ccc(C=Cc2ccccn2)cc1 | – | inconclusive: 14.1 µM [inhibitor, single point] |
| COc1cc2oc3ccccc3c2cc1N(CC(=O)N(C)C)S(=O)(=O)c1ccccc1 | – | inconclusive: 17.8 µM [inhibitor, single point] |
| C=CCN(c1ccccc1C(=O)O)S(=O)(=O)/C=C/c1ccccc1 | – | inconclusive: 3.55 µM [activator, partial curve, poor fit] |
| O=C(c1ccc(N2CN(C(=O)c3ccco3)c3nc4ccccc4nc32)cc1)N1CCOCC1 | – | inconclusive: 32.6 µM [inhibitor, single point] |
| Cc1ccc(COc2ccc(C)nc2[N+](=O)[O-])cc1 | – | inconclusive: 0.891 µM [activator, full curve, poor fit] |
| CCN(CC)P(=O)(/C=C(\Cl)c1ccccc1)/C=C(\Cl)c1ccccc1 | – | inconclusive: 35.5 µM [inhibitor, single point] |
| Cc1ccc(Sc2ncccc2/C=N/O)cc1 | – | inconclusive: 12.6 µM [activator, partial curve, poor fit] |
| COc1ccc(OC)c(-c2csc(N(Cc3ccco3)C(=O)c3cccs3)n2)c1 | – | inconclusive: 13 µM [inhibitor, partial curve, poor fit] |
| O=C(Nc1ccccc1)OC(CN1CCCCC1)C(F)(F)F (configuration not stated) | – | inconclusive: 12.6 µM [activator, partial curve, poor fit] |
| COc1ccc(-c2nn(-c3ccccc3)cc2/C=N/Nc2ccc3ccccc3n2)cc1OC | – | inconclusive: 14.1 µM [inhibitor, partial curve, poor fit] |
| COc1cccc(N2CCN(C(=O)c3ccc(Cn4c(=O)[nH]c5cc(OC)c(OC)cc5c4=O)cc3)CC2)c1 | – | inconclusive: 1 µM [activator, full curve, poor fit] |

In the list so far, 3 have an NH in an aromatic ring.

| SMILES | activity change, negative = inhibition | Potency |
| --- | --- | --- |
| O=C1CC(c2nc3ccccc3[nH]2)CN1c1cccc(Cl)c1 (configuration not stated) | inactive: 13.2% [at 46.1 µM] | – |
| Cc1ccc(NC(=O)COC(=O)Cc2c[nH]c3ccccc23)cc1F | – | inconclusive: 1.26 µM [activator, partial curve, poor fit] |
| COc1cccc(N2CCN(C(=O)c3ccc(Cn4c(=O)[nH]c5cc(OC)c(OC)cc5c4=O)cc3)CC2)c1 | – | inconclusive: 1 µM [activator, full curve, poor fit] |

Following part

| SMILES | activity change, negative = inhibition | Potency |
| --- | --- | --- |
| COc1ccc(NC(=O)CN(C)C(=O)CCCc2c[nH]c3ccccc23)cc1 | – | inconclusive: 3.55 µM [activator, single point] |
| Cn1c(SCc2cccc(Br)c2)nnc1-c1ccccn1 | inactive: 18.5% [at 46.1 µM] | – |
| COc1cc2c(cc1OC)/C(=C/c1ccc(Cl)cc1)C(=O)OC2 | – | inconclusive: 20 µM [inhibitor, single point] |
| COc1ccc(OCc2cccc(C(=O)Nc3cc(C)on3)c2)cc1 | – | active: 5.8 µM |
| COc1ccc(-c2nsc(C(=O)N(c3ccc(F)cc3)C(C(=O)NC3CCCC3)c3ccc(OC)cc3)c2N)cc1 (configuration not stated) | – | inconclusive: 18.3 µM [inhibitor, single point] |
| Cc1ccc(-n2nnnc2CS(=O)(=O)c2ccccc2)c(C)c1 | – | inconclusive: 35.5 µM [activator, single point] |
| O=C(NCc1nnc(SCC(=O)N2CCN(c3ccccc3)CC2)o1)c1ccc(F)cc1 | inactive: 3.33% | – |
| CN1CCN(CC(=O)n2c3c(c4ccccc42)CCCC3)CC1 | – | inconclusive: 20.6 µM [inhibitor, single point] |
| c1cncc(-c2nc(-c3ccc4c(c3)OCO4)cs2)c1 | inactive: -2.13% [at 46.1 µM] | – |
| CCOc1ccccc1N1CC(c2nc3ccccc3n2CCOc2ccccc2)CC1=O (configuration not stated) | – | inconclusive: 25.1 µM [inhibitor, partial curve, poor fit] |
| CC(C)(O)C#Cc1ccc(C(=O)NC2CCCCC2)s1 | – | inconclusive: 2.82 µM [activator, full curve, poor fit] |
| O=C(/C=C/c1ccc2c(c1)OCO2)N1CCCCC1 | inactive: 13.2% | – |
| Cn1c(-c2ccc3c(c2)OCO3)cnc1NCc1cccc(O)c1 | – | inconclusive: 10 µM [inhibitor, single point] |
| O=C(COC(=O)/C=C/c1ccc(OC(F)F)cc1)NCc1cccs1 | inactive: 9.4% | – |
| Cc1cc(C)c2c(CC(=O)N3CCN(c4cccc(Cl)c4)CC3)coc2c1 | – | inconclusive: 3.55 µM [activator, single point] |
| N#Cc1ccc(OCC(=O)N/N=C2/CC(c3ccccc3)Oc3ccccc32)cc1 (configuration not stated) | – | inconclusive: 2.82 µM [inhibitor, full curve, poor fit] |
| O=C(c1ccc2c(c1)N(Cc1ccc(Cl)cc1)C(=O)c1ccccc1S2=O)N1CCOCC1 (configuration not stated) | inactive: 17.7% [at 46.1 µM] | – |
| CC(=O)c1ccc(CCCCCCCCCC(=O)O)s1 | – | inconclusive: 5.62 µM [activator, single point] |
| CCOc1ccccc1N1CC(C(=O)Nc2ccc3c(c2)OCCO3)CC1=O (configuration not stated) | – | inconclusive: 1.26 µM [inhibitor, single point] |
| CC(NC(=O)COC(=O)c1cccc(S(=O)(=O)N2CCCC2)c1)c1ccccc1 (configuration not stated) | inactive: 14.6% | – |
| O=C(COC(=O)/C=C/c1cccc(C(F)(F)F)c1)NC(=O)NCc1ccccc1 | – | inconclusive: 0.794 µM [activator, single point] |
